For two compounds, Serum colour results are on record in patent US7629471B2, “Transcriptional factor, process for producing the same and use thereof” (NRL Pharma, Inc., priority 2003, dated 2009).

This data set deals with Male ICR mice. Description: Effect on serum total cholesterol: in-feed vs forced oral administration (Table 1). The class given is in vivo. An excerpt:
In contrast, the solubility of Compound-1 in water is as extremely low as about 0.7 g/l; Compounds-1 and -2 are poles apart in terms of solubility in water. […] However, even when both compounds are simply mixed in a mechanical manner into feed in an amount of 0.1% or even when both compounds are given for forced oral administration in the same drug amount calculated from feed intake, there is no reproducibility in their efficacy unlike the case where their acetone solutions are sprayed over feed.

Setting [1] is: Spraying of acetone solution over feed.

On to `COc1c(Cl)c(C)c(C=O)c(O)c1C/C=C(C)/C=C/[C@@]1(C)[C@H](C)CCC(=O)[C@@H]1C` [Compound-1, 4-O-methylascochlorin], for which the Serum colour result is “tests Serum is not colored” (Forced oral administration), “Serum is not colored” (Mechanical mixing into feed) and “Serum is vivid yellow” under setting [1].
In the case of `CC(C=CC1(C)C(C)CCC(=O)C1C)=CCc1c(O)c(C=O)c(C)c(Cl)c1OCC(=O)O` (stereo not shown) [Compound-2, 4-O-carboxymethylascochlorin], the Serum colour result under setting [1] is “Serum is yellow”.
